{"source": "paper PMC9601230", "about": "(mBio, 2022)", "biological_target": "T1, DrRuvC (Deinococcus radiodurans) (UniProt Q9RX75)", "T1 sequence (looked up)": "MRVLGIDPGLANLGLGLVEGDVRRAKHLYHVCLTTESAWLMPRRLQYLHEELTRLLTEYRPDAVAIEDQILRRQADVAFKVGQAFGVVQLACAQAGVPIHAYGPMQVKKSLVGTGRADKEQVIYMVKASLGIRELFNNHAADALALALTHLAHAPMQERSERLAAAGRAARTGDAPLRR", "assay": "EMSA", "settings": "EMSA: 100 nM 6-FAM substrate, 50 mM Tris-HCl pH 8.0, 125 mM NaCl, 10 ug/mL BSA, 1 mM TCEP, 5% glycerol, 30 C 10 min, 5% native PAGE in 0.5x Tris-borate, recombinant protein, residues 1-179, protein details: N-terminal His-MBP-TEV, removed by TEV, label: 5'-6-FAM on J31-1; for Kd: only nonspecific complexes; for binding result: folded or branched DNA", "note": "Where a protein sequence is shown, tags need not be part of it. Construct, isoform or probe ends are uncertain for at least one entry. The comparison behind a weaker result is the experiment's own reference, which may not be listed here. At least one verdict rests on a figure or table, not on a statement of the authors.", "data": [{"sequence": "GCTAGCCACAGCCATTCGTACGATTGCGGGA (double strand) [duplex]", "values": [{"measurement": "Kd", "result": "> 1.1", "unit": "µM"}]}, {"sequence": "GCTAGCCACAGCCATTCGTACGATTGCGGGA / ATGGCATCTGCAGGCAATGGCTGTGGCTAGC [splayed duplex-b]", "values": [{"measurement": "binding result", "result": "binds more weakly"}]}, {"sequence": "GCTAGCCACAGCCATTCGTACGATTGCGGGA / TCCCGCAATCGTATTTTTGGCTGTGGCTAGC [bulge]", "values": [{"measurement": "Kd", "result": "> 1.1", "unit": "µM"}]}, {"sequence": "GCTAGCCACAGCCATTCGTACGATTGCGGGA / TCCCGCAATCGTCCGTTTCCGAGCACGATCT [splayed duplex-a]", "values": [{"measurement": "binding result", "result": "binds more weakly"}]}]}
